From paper PMC12651786
No constants are given. Whether binding was seen depends on the method and setting. Binding seen in cells or lysates may run through a third protein. Some entries that bind do so weakly or less than the wild type.

The chains behind the UniProt entries cited, without tags or fusion partners.
UniProt P26883: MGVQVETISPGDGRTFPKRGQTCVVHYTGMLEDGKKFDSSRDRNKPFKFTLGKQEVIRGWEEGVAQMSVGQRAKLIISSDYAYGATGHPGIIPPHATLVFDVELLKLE

What was measured:
[1] = biological target: ryanodine receptor/Ca2+-release channel RyR1, wild type (mouse) (mouse (endogenous in mouse hind-limb muscle)) (UniProt E9PZQ0); experiment: co-IP; RyR1 immunoprecipitated with anti-RyR1 mouse monoclonal Ab (MA3-925) and Dynabeads-Protein G from SR vesicles (at 20 % O2) solubilized in 1 % Nonidet P40, 250 mM NaCl, 5 mM EDTA; Western blot for CaM or FKBP12; n = 4 mice per group
[2] = biological target: RyR1 Cys3636Ala (C3636A) knock-in mutant (mouse) (mouse (endogenous in mouse hind-limb muscle)) (UniProt E9PZQ0); experiment: as above

binding [1]: binds
binding [2]: binds
Substance: FKBP12 (from UniProt P26883 1-108)
